According to publication PMC5897412:
No constants are given. Whether binding was seen depends on the method and setting. In cells and extracts the contact can be indirect. A yes stands for co-enrichment or nearness to the bait. Other partners may have been found.

Biological target: tetraspanin 15 (TSPAN15) (human (endogenous in KYSE30)), O95858
Assay: affinity purification with mass spectrometry; anti-TSPAN15 antibody incubated with protein extracts from KYSE30 cells, protein A/G agarose beads; band specific against IgG control excised from the gel and identified by mass spectrometry
Conditions: remark: other sources report otherwise

B1: beta-transducin repeat containing E3 ubiquitin protein ligase (BTRC), Q9Y297 1-605 (protein)
chain: MDPAEAVLQEKALKFMCSMPRSLWLGCSSLADSMPSLRCLYNPGTGALTAFQNSSEREDCNNGEPPRKIIPEKNSLRQTYNSCARLCLNQETVCLASTAMKTENCVAKTKLANGTSSMIVPKQRKLSASYEKEKELCVKYFEQWSESDQVEFVEHLISQMCHYQHGHINSYLKPMLQRDFITALPARGLDHIAENILSYLDAKSLCAAELVCKEWYRVTSDGMLWKKLIERMVRTDSLWRGLAERRGWGQYLFKNKPPDGNAPPNSFYRALYPKIIQDIETIESNWRCGRHSLQRIHCRSETSKGVYCLQYDDQKIVSGLRDNTIKIWDKNTLECKRILTGHTGSVLCLQYDERVIITGSSDSTVRVWDVNTGEMLNTLIHHCEAVLHLRFNNGMMVTCSKDRSIAVWDMASPTDITLRRVLVGHRAAVNVVDFDDKYIVSASGDRTIKVWNTSTCEFVRTLNGHKRGIACLQYRDRLVVSGSSDNTIRLWDIECGACLRVLEGHEELVRCIRFDNKRIVSGAYDGKIKVWDLVAALDPRAPAGTLCLRTLVEHSGRVFRLQFDEFQIVSSSHDDTILIWDFLNDPAAQAEPPRSPSRTYTYISR
With B1 the binding was “binds”.
